Values from PubChem BioAssay AID1259405 (NCATS, 2018).

Screen: 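Silenced genes that increase secreted GFP made by CHO cells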 (primary screen)
Cells: Chinese hamster CHO-K1 ovary cells with stable secreted eGFP expression
Knock-down reagent: single siRNA against mouse genes, 0.8 pmol siRNA per well (2 µl of 400 nM stock)
Time to read-out: 3 days
Measured: 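Percent of the per-plate non-targeting control median for intracellular GFP per well by laser scanning cytometry and for cell viability by ATP luminescence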
Direction: GFP, % of control: higher = more GFP per well, higher productivity; viability (ATP), % of control: higher = more viable cells (more ATP)
Call rule: 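Called active when intracellular GFP, relative to negative control, is at or above 120%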
The whole screen tested about 50,000 reagents; this is an unselected part. Over the whole deposit, about 4,000 (8%) were called active. 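Mouse siRNA library applied to hamster cells; one well for each siRNA.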 A number with no mark means an inactive call. The numbers tell different reagents against one gene apart.

no.	target gene	reagent	GFP, % of control	viability (ATP), % of control
1	Svs5	1	89.2	79.5
2	Svs5	2	68.2	82.7
3	Svs5	3	127 (active)	100
4	Fam76b	1	129 (active)	90.9
5	Fam76b	2	46.4	73.1
6	Fam76b	3	90.7	69.5
7	Mmp11	1	111	121
8	Mmp11	2	83.2	105
9	Vcam1	1	88.9	101
10	Vcam1	2	123 (active)	116
11	Cyb5r2	1	78.5	73.2
12	Cyb5r2	2	68	87.8
13	Cyb5r2	3	101	63.7
14	Rccd1	1	70.9	81.6
15	Rccd1	2	89.7	87.8
16	Rccd1	3	86.5	71.5
17	Ces2c	1	42.5	41.2
18	Ces2c	2	118	100
19	Ces2c	3	72.5	65.5
20	Gimap6	1	95.9	104
21	Gimap6	2	108	64.3
22	Gimap6	3	66.2	62.9

2 entries from above in another layout:
| target gene | reagent | GFP, % of control | viability (ATP), % of control |
| --- | --- | --- | --- |
| Fam76b | 2 | 46.4 | 73.1 |
| Fam76b | 3 | 90.7 | 69.5 |

Continued.
no.	target gene	reagent	GFP, % of control	viability (ATP), % of control
23	Cycs	1	104	90.1
24	Cycs	2	93.4	80
25	Cycs	3	66.5	74.7
26	Zfp33b	1	56	72.6
27	Zfp33b	2	75.9	77.8
28	Zfp33b	3	84.4	66.4
29	Suds3	1	90.3	87
30	Suds3	2	79.7	64.1
31	Suds3	3	87.4	104
32	Rrm2b	1	58.9	56.6
33	Rrm2b	2	50	41.1
34	Hadha	1	66	69.5
35	Hadha	2	79.2	65.5
36	Hadha	3	111	83.4
